Results from the supplement of paper PMC4862054.
Small differences around the control level are noise.

What was measured:
Assay in all cases: normalised response (% of control), CellTox Green; higher = less cell death (100 = DMSO, 0 = benzethonium chloride kill control)
Conditions in all cases: incubation time: 72 h
[1] = tested on: CAL-85-1
Protocol: (§1)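 DSRT, 72 h incubation, CellTox Green / CellTiter-Glo readout. Signal is normalised to DMSO and benzethonium chloride controls. Value is the normalised response at dose 2.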

[2] = tested on: MDA-MB-453
Protocol: as §1

[3] = tested on: CAL-148
Protocol: as §1

[4] = tested on: HCC1599
Protocol: as §1

[5] = tested on: Hs578T
Protocol: as §1

[6] = tested on: MFM-223
Protocol: as §1

[7] = tested on: MDA-MB-436
Protocol: as §1

[8] = tested on: BT-549
Protocol: as §1

[9] = tested on: HCC1937
Protocol: as §1

[10] = tested on: CAL-51
Protocol: as §1

[11] = tested on: DU-4475
Protocol: as §1

[12] = tested on: HDQ-P1
Protocol: as §1

[13] = tested on: MDA-MB-231
Protocol: as §1

[14] = tested on: HCC1143
Protocol: as §1

[15] = tested on: CAL-120
Protocol: as §1

[16] = tested on: BT-474
Protocol: as §1

[17] = tested on: MCF-10A
Protocol: as §1

[18] = tested on: MDA-MB-468
Protocol: as §1

Row | SMILES | normalised response [1] [%] | normalised response [2] [%] | normalised response [3] [%] | normalised response [4] [%] | normalised response [5] [%] | normalised response [6] [%] | normalised response [7] [%] | normalised response [8] [%] | normalised response [9] [%] | normalised response [10] [%] | normalised response [11] [%] | normalised response [12] [%] | normalised response [13] [%] | normalised response [14] [%] | normalised response [15] [%] | normalised response [16] [%] | normalised response [17] [%] | normalised response [18] [%]
1 | COc1ccc(S(=O)(=O)Nc2cccnc2Nc2ccc(O)cc2)cc1 [ABT-751] (10 nM) | 99.2 | 106 | 96.1 | 114 | 116 | 99.8 | 110 | 105 | 98.7 | 103 | 110 | 110 | 98.7 | 83.3 | 104 | 97.4 | 98.2 | 57.2
2 | CN(C)CCN1C(=O)c2cccc3cc(N)cc(c23)C1=O [Amonafide] (10 nM) | 98.4 | 107 | 66.6 | 115 | 97.9 | 91.3 | 84.8 | 102 | 108 | 110 | 110 | 77.2 | 100 | 110 | 103 | 99.5 | 112 | –
3 | Cc1c(N)nc([C@H](CC(N)=O)NC[C@H](N)C(N)=O)nc1C(=O)N[C@H](C(=O)N[C@H](C)[C@@H](O)[C@H](C)C(=O)N[C@H](C(=O)NCCc1nc(-c2nc(C(=O)NCCC[S+](C)C)cs2)cs1)[C@@H](C)O)[C@@H](OC1OC(CO)C(O)C(O)C1OC1OC(CO)C(O)C(OC(N)=O)C1O)c1cnc[nH]1 (some centres not stated) [Bleomycin] (10 nM) | 97.2 | 93.2 | 103 | 94.3 | 110 | 101 | 97.7 | 99.6 | 111 | 92.6 | 94.7 | 69.4 | 102 | 105 | 99.2 | 97 | 103 | 108
4 | CC(C)C[C@H](NC(=O)[C@H](Cc1ccccc1)NC(=O)c1cnccn1)B(O)O [Bortezomib] (1 nM) | 101 | 101 | 110 | 101 | 117 | 103 | 92.8 | 105 | 119 | 99.2 | 96.9 | 115 | 116 | 103 | 100 | 99.4 | 109 | 96.3
5 | CC(C)C[C@H](NC(=O)[C@H](CCc1ccccc1)NC(=O)CN1CCOCC1)C(=O)N[C@@H](Cc1ccccc1)C(=O)N[C@@H](CC(C)C)C(=O)[C@@]1(C)CO1 [Carfilzomib] (1 nM) | 98.6 | 101 | 106 | 115 | 74.8 | 101 | 113 | 99.8 | 114 | 91.4 | 112 | – | 86.9 | 59.7 | 102 | 89.7 | 99 | –
6 | Nc1ncn([C@H]2C[C@H](O)[C@@H](CO)O2)c(=O)n1 [Decitabine] (10 nM) | 99 | 94.9 | 84.8 | 110 | 111 | 92.3 | 82.3 | 110 | 96.8 | 90.6 | 104 | – | 102 | 122 | 103 | 102 | 108 | 94.1
7 | Nc1nc(F)nc2c1ncn2[C@@H]1O[C@H](CO)[C@@H](O)[C@@H]1O [Fludarabine] (10 nM) | 97.9 | 79.7 | 104 | 119 | 70.1 | 104 | 93.7 | 89.3 | 67.1 | 113 | 108 | 118 | 107 | 80.1 | 99.9 | 101 | 108 | 69.3
8 | CC(C)NC[C@@H](C(=O)N1CCN(c2ncnc3c2[C@H](C)C[C@H]3O)CC1)c1ccc(Cl)cc1 [GDC-0068] (10 nM) | 98.5 | 92.9 | 83 | 99 | 65.6 | 99.9 | 96.3 | 105 | – | 106 | 94.5 | 102 | 110 | 96.6 | 94.6 | 102 | 90 | 120
11 | COC1=CC(c2cc3ccccc3[nH]2)=N/C1=C\c1[nH]c(C)cc1C [Obatoclax] (10 nM) | 94.8 | 95.6 | – | 96.5 | 114 | 94.2 | 104 | 90.3 | 70.7 | 101 | 95.9 | 101 | – | 64 | 100 | 77.2 | 100 | 106
12 | CC(=O)c1c(C)c2cnc(Nc3ccc(N4CCNCC4)cn3)nc2n(C2CCCC2)c1=O [Palbociclib] (10 nM) | 102 | 95.1 | 101 | 93.2 | 115 | 95.2 | 97 | 102 | 109 | 96.1 | 95.2 | 112 | 85.9 | 102 | 93.6 | 94.8 | 93.3 | –
13 | NS(=O)(=O)OC[C@@H]1C[C@@H](n2ccc3c(N[C@H]4CCc5ccccc54)ncnc32)C[C@@H]1O [Pevonedistat] (10 nM) | 109 | 110 | 115 | 126 | 130 | 105 | 84.1 | 105 | – | 98 | 115 | 108 | 112 | 101 | 102 | 105 | 114 | 125
14 | COc1cc(F)c(F)c(Nc2ccc(I)cc2F)c1NS(=O)(=O)C1(C[C@H](O)CO)CC1 [Refametinib] (10 nM) | 93.5 | 95.8 | 102 | 92.9 | – | 100 | 77.1 | 100 | 96.2 | 106 | 96 | 109 | 95.3 | 105 | 99.8 | 98.8 | 104 | –
15 | CO[C@H]1C[C@@H]2CC[C@@H](C)[C@@](O)(O2)C(=O)C(=O)N2CCCC[C@H]2C(=O)O[C@H]([C@H](C)C[C@@H]2CC[C@@H](OP(C)(C)=O)[C@H](OC)C2)CC(=O)[C@H](C)/C=C(\C)[C@@H](O)[C@@H](OC)C(=O)[C@H](C)C[C@H](C)/C=C/C=C/C=C/1C [Ridaforolimus] (0.1 nM) | 96.7 | 106 | 107 | 114 | – | 93.4 | – | 99.7 | 106 | 105 | 110 | 125 | 90.7 | 122 | 98.4 | 102 | 107 | 113
17 | CNC(=O)c1cc(Oc2ccc(NC(=O)Nc3ccc(Cl)c(C(F)(F)F)c3)cc2)ccn1 [Sorafenib] (1 nM) | 104 | 98.8 | 103 | 98.7 | 109 | 101 | 95.1 | 101 | 65.1 | 115 | 99.2 | 115 | 96.9 | – | 95.8 | 100 | 51.4 | 115
18 | CN(N=O)C(=O)N[C@@H](C=O)[C@@H](O)[C@H](O)[C@H](O)CO [Streptozocin] (10 nM) | 101 | 102 | 111 | 106 | 129 | 95.6 | 88.7 | 108 | 88.4 | 102 | 101 | 114 | – | 113 | 99.9 | 106 | 92.1 | 127
20 | C[C@@H](C(=O)O)c1ccc(-c2ccccc2)c(F)c1 [Tarenflurbil] (10 nM) | 96.5 | 101 | 79.7 | 99.5 | 104 | 100 | – | 95.1 | 75.8 | 107 | 96.8 | 121 | 78.2 | 109 | 99.7 | 99.4 | 79 | 90.8
22 | CC[C@@H]1C(=O)N(C)c2cnc(Nc3ccc(C(=O)N[C@H]4CC[C@H](N5CCN(CC6CC6)CC5)CC4)cc3OC)nc2N1C(C)C [Volasertib] (1 nM) | 102 | 89.6 | – | 84.1 | 114 | 76.7 | 82.1 | 99.4 | 73.2 | 107 | 95.5 | 104 | 105 | 83.7 | 96.4 | 93.7 | 93.5 | 94.7

A few values from the entries so far:
normalised response [10] [%] with `COC1=CC(c2cc3ccccc3[nH]2)=N/C1=C\c1[nH]c(C)cc1C` [Obatoclax] (10 nM) is entered as 101
normalised response [11] [%] with `CC[C@@H]1C(=O)N(C)c2cnc(Nc3ccc(C(=O)N[C@H]4CC[C@H](N5CCN(CC6CC6)CC5)CC4)cc3OC)nc2N1C(C)C` [Volasertib] (1 nM) is entered as 95.5
